This passage reports binding results from PMC11255314.

Chains of the proteins cited; added tags and fusions are not shown.
UniProt Q9C0C2: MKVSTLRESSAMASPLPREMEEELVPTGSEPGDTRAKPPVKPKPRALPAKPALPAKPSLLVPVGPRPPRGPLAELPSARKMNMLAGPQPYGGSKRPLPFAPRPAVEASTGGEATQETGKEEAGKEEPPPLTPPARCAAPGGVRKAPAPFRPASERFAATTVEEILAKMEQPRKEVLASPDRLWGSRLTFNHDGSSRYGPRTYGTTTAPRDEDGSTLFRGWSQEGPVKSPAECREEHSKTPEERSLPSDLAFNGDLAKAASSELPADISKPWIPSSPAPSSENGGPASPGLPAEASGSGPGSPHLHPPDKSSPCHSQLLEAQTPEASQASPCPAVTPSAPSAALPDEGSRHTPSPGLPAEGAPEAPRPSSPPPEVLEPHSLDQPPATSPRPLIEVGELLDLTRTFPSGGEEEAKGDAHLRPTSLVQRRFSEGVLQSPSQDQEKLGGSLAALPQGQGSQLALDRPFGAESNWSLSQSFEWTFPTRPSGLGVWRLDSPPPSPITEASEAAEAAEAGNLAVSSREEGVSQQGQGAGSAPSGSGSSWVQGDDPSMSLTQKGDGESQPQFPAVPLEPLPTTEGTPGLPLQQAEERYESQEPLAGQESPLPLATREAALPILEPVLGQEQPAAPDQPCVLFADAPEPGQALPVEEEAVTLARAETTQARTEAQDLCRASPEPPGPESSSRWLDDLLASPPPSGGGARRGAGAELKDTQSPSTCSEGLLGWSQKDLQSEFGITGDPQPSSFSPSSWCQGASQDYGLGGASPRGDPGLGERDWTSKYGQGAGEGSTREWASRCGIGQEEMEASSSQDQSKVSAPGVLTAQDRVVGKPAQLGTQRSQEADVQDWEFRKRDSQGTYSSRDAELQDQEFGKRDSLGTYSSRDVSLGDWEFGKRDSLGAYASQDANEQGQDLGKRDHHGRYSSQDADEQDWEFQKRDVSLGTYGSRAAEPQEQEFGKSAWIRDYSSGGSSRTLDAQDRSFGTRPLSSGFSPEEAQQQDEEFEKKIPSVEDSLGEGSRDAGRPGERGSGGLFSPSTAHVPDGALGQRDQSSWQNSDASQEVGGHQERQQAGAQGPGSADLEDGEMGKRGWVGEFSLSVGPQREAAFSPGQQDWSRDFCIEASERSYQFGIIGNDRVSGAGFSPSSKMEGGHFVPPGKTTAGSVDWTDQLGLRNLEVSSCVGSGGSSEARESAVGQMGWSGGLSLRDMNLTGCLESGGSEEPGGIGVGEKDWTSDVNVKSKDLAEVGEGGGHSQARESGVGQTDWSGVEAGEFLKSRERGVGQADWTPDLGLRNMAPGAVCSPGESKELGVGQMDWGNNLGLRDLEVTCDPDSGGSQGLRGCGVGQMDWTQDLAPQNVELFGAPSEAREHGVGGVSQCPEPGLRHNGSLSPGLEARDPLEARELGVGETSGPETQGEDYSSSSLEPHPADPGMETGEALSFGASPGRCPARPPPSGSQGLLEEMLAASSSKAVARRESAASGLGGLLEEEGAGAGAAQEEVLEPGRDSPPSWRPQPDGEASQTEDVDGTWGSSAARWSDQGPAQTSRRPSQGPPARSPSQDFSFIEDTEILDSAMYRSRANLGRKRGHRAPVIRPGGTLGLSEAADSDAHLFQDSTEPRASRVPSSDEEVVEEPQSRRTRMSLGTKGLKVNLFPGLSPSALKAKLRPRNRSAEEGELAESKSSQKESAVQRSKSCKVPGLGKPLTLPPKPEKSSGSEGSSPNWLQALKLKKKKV
UniProt P19474: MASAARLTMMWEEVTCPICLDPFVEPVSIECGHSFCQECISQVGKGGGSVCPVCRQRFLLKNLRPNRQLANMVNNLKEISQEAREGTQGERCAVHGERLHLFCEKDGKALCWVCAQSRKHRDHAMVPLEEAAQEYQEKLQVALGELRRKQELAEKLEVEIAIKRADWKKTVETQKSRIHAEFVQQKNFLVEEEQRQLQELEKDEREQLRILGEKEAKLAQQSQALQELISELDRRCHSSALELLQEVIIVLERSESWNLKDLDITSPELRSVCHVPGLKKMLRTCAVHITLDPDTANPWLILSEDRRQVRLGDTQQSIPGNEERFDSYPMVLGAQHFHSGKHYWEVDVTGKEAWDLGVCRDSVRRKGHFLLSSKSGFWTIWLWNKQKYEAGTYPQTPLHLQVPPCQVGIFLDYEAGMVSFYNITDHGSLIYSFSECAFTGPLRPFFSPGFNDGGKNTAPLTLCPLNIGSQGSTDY

The target in this assay is Flag-TNKS1BP1 (tankyrasel binding protein 1) (UniProt Q9C0C2). Nature of the assay: affinity purification with mass spectrometry; HEK293T cells stably expressing Flag-TNKS1BP1; anti-Flag IP products, MS analysis.

Results are given in words; binding and its absence hold for the method and conditions named. In cells and extracts the contact can be indirect. A yes stands for co-enrichment or nearness to the bait. Other partners may have been found.

“TRIM21 (tripartite motif containing 21) in HEK293T lysate (from UniProt P19474 1-475)”: the binding result is given as “binds”.
